# The other results are listed elsewhere or left out. These are further read-outs of the screen, such as a control signal, another cell line or another target. No call is given for them. Compounds called inactive in the main read-out are mostly missing here. The note in brackets gives the kind of curve behind each potency; many fits are weak.
# Test: qHTS Assay for Lipid Storage Modulators in Drosophila S3 Cells;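 as to cell number change: cells counted by Cell Tracker Red CMTPX staining in the red channel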
# Conditions: BODIPY lipid droplet fluorescence, 18-24 h; for cell number change: measured here: cell count max response, cells fed with added oleic acid
# Outline: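 Drosophila S3 cells got compounds at several concentrations plus oleic acid (400 uM solution). Laser-scanning cytometry with 488 nm excitation read lipid droplets at 500-530 nm and cells at 575-640 nm. Percent activity was relative to 20 uM Triacsin C.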
# [1] = measured here: cell number channel AC50, cells fed with added oleic acid
# [2] = measured here: lipid fluorescence (Fed channel) AC50, cells fed with added oleic acid
Structure (SMILES),cell number change [%],AC50 [1],AC50 [2]
CCN(CC)CCN1C(=O)C(O)=C(C(=O)c2cccs2)C1c1ccc(C)o1 (centres undefined),4.7,"1.16 µM [falling, full curve, poor fit]",
Cc1ccc(C(=O)NNC(=O)c2csc(N3CCOCC3)n2)s1,9.12,,"6.51 µM [rising, single point]"
COc1cc(/C=C/C(=O)c2ccc(NS(=O)(=O)c3ccc(C)cc3)cc2)ccc1OC(F)F,,,"6.51 µM [rising, single point]"
CCC(=O)c1ccc(OCC(O)CN2CCN(c3ccccn3)CC2)cc1 (centres undefined),28.4,"0.103 µM [rising, full curve, poor fit]",
O=C(Nc1ccccc1C(F)(F)F)c1ccsc1,18.1,,
Cc1cc(C(=O)OCC(=O)NC2(C#N)CCCCC2)c(C)o1,,,"23.1 µM [rising, partial curve, poor fit]"
COCCCNC(=O)CN(CCc1ccccc1)S(=O)(=O)c1ccccc1,122,"3.66 µM [falling, single point]","29.1 µM [rising, single point]"
C/C(=N\NC(=O)c1ccccc1)c1c(C)[nH]n(-c2ccccc2)c1=O,-12.1,,
CC(C)(C)NC(=O)c1ccc(NC(=O)c2ccccc2-c2ccccc2C(=O)O)cc1,31.2,"1.03 µM [rising, full curve, poor fit]","29.1 µM [rising, single point]"
CCN(CC)P(=O)(C(NC(=O)OC)C(F)(F)C(F)(F)C(F)(F)C(F)F)N(CC)CC (centres undefined),77.6,,
CCC(C)NC(=O)C(CCSC)NC(=O)c1ccccc1 (centres undefined),-38,"4.11 µM [falling, full curve, poor fit]","13 µM [falling, partial curve]"
CCOc1cc2[nH]c(=O)n(Cc3ccc(C(=O)NCCCN4CCCC4=O)cc3)c(=O)c2cc1OCC,-16.3,,
COc1ccc(-n2c(=O)cc(N3CCN(c4ccccc4OC)CC3)[nH]c2=O)cc1,0.539,,
O=C(c1ccc2nc(N3CCCCC3)sc2c1)N1CCN(c2ccccn2)CC1,85.7,"4.11 µM [rising, full curve]","2.31 µM [rising, full curve]"
O=C(CSc1ncnc2nc[nH]c12)Nc1nnc(SCc2ccc(Cl)c(Cl)c2)s1,-9.55,,
Cc1ccc(-n2ncc3c2CCCC3NC(=O)CCCN2CCCCC2=O)cc1C (centres undefined),-10.8,,"0.164 µM [rising, full curve, poor fit]"
O=C(Nc1cccc(NC(=O)c2cccs2)c1)c1ccc(Br)cc1,6.82,,"8.2 µM [falling, partial curve]"
CN1CCN(C(=O)CCN2C(=O)S/C(=C/c3ccc(Cl)cc3)C2=O)CC1,135,"29.1 µM [rising, single point]",
COc1ccc(-c2nc3n(n2)C(c2ccccc2Cl)C(C(N)=O)=C(C)N3)cc1 (centres undefined),32.1,"2.31 µM [rising, partial curve, poor fit]","0.731 µM [falling, single point]"

Structure (SMILES),cell number change [%],AC50 [1],AC50 [2]
O=C(NCC(=O)N(c1cccc(F)c1)C(C(=O)NC1CCCC1)c1cccnc1)c1ccco1 (centres undefined),12.9,,
CCOc1ccccc1OCCn1nnc2ccccc21,,,"0.58 µM [rising, single point]"
CC(C)C(=O)Nc1cccc(-c2nc3ncccc3o2)c1,-8.5,,
CCOC(=O)[C@H]1[C@H]2COc3ccc(OC)cc3[C@@H]2N2C(=O)CN(Cc3ccc(OC)cc3)C(=O)[C@@]12C,-11.1,,
Cc1ccc(C(=O)NCCc2cccc(Cl)c2)cc1[N+](=O)[O-],6.04,,"5.8 µM [rising, partial curve]"
CC(=O)Nc1c2c(nn1-c1ccc(C)cc1C)CS(=O)C2 (centres undefined),20.7,"0.517 µM [rising, full curve, poor fit]","29.1 µM [falling, single point]"
CCOc1ccc(-n2c(SC(C)C)nc3c(c2=O)SCC3)cc1,-26.3,,"0.058 µM [falling, full curve, poor fit]"
COc1cc(C(=O)NC(=S)Nc2ccc(N3CCCC3)cc2)cc(OC)c1OC,-31.8,"2.06 µM [falling, full curve]","3.66 µM [falling, full curve]"
CCOc1ccc(C(C)=O)cc1N1C(=O)C2C3C=CC(O3)C2C1=O (centres undefined),-72.5,"29.1 µM [falling, single point]","29.1 µM [falling, single point]"
COc1ccc(C)cc1NC(=O)Nc1ccc2c(c1)CCC2,2.55,,"29.1 µM [falling, single point]"
CCN(CC)CCN1C(=O)C(=O)/C(=C(/O)c2cnn(-c3ccccc3)c2C)C1c1ccc(C)o1 (centres undefined),13.5,,"10.3 µM [rising, partial curve, poor fit]"
Cc1ccc(S(=O)(=O)N(C)CC(=O)N/N=C/c2ccc(C)o2)cc1,12.6,,"0.731 µM [rising, full curve, poor fit]"
CC(C(=O)Nc1nc(-c2ccc(F)cc2)cs1)N1C(=O)C2CC=CCC2C1=O (centres undefined),-41.8,"16.4 µM [falling, partial curve]",
Cc1nc2sc(C(c3ccco3)N3CC(C)OC(C)C3)c(O)n2n1 (centres undefined),20.4,,"2.31 µM [rising, full curve]"
Cc1ccc(-n2c(C)cc(/C=C3\SC(=O)NC3=O)c2C)cc1,2.7,,"4.61 µM [falling, partial curve]"
CCSc1nc2ccccc2c(=O)n1-c1c(C)n(C)n(-c2ccccc2)c1=O,-13.8,"0.0651 µM [falling, full curve, poor fit]","23.1 µM [falling, single point]"
COc1ccc(C(CC(=O)O)NC(=O)c2ccccc2)cc1OC (centres undefined),-36.2,"0.259 µM [falling, full curve]","29.1 µM [falling, single point]"
Cc1cccc(CN(C)CCc2ccccn2)c1,-0.149,"0.13 µM [falling, full curve, poor fit]",
NNc1nc(-c2ccccc2)cc(-c2ccccc2)n1,-24.7,,"20.6 µM [falling, single point]"

Structure (SMILES),cell number change [%],AC50 [1],AC50 [2]
Cc1ccnc(NC(=O)CN2C(=O)c3ccccc3S2(=O)=O)c1,47.8,"10.3 µM [rising, partial curve]",
O=C(Nc1nc(-c2ccc(Cl)s2)cs1)c1ccccc1,-32.3,"29.1 µM [falling, single point]","0.259 µM [rising, partial curve, poor fit]"
Oc1ccc(/C=C/c2ccc3cccc(O)c3n2)cc1Br,-36.6,"18.4 µM [falling, single point]","29.1 µM [falling, single point]"
COc1ccc(-n2cccc2/C=C2/NC(=O)N(c3cccc(Cl)c3)C2=O)cc1,-14.4,,"0.731 µM [falling, partial curve]"
CN(/N=C/c1cccnc1)c1cnn(-c2ccc(F)c(Cl)c2)c(=O)c1Cl,69.8,"29.1 µM [rising, single point]",
COc1ccc(N2C(=O)CCC(C(=O)N3CCCCC3)C2c2ccc(OC)c(OC)c2)cc1 (centres undefined),8.43,"0.731 µM [falling, full curve]","0.651 µM [falling, full curve]"
O=C(CCN=C1NS(=O)(=O)c2ccccc21)OCC(=O)c1ccccc1,-0.828,,
CCC(C)NC(=O)C1c2cc(OC)c(OC)cc2C(=O)N(C)C1c1cccs1 (centres undefined),-23.5,,
Cc1ccc(Cl)cc1N1CCN(S(=O)(=O)c2c(C)noc2C)CC1,46.4,"29.1 µM [rising, single point]","29.1 µM [rising, single point]"
COc1ccc2c(c1)C(=O)CC(O)(C(F)F)O2 (centres undefined),-27.8,"3.66 µM [falling, full curve, poor fit]",
Cc1cccc2sc(N(CCN3CCOCC3)C(=O)CCS(=O)(=O)c3ccccc3)nc12,-21.6,"0.731 µM [falling, full curve, poor fit]",
O=C(Nc1ccc(OC(F)(F)F)cc1)NC1CCC(Oc2ccc(C(=O)O)cc2)CC1 (centres undefined),8.1,"5.17 µM [rising, single point]","7.31 µM [falling, partial curve]"
Cc1ccc(C(=O)N2CCN(C(=O)c3ccccc3)C2c2ccc(N(C)C)cc2)cc1 (centres undefined),-3.42,,"6.51 µM [rising, single point]"
CCN(CC)S(=O)(=O)c1ccc(N/N=C/c2cc(OC)c(OC)cc2OC)nc1,142,"4.11 µM [rising, full curve, poor fit]","29.1 µM [rising, partial curve]"
CC(=O)c1ccc(N(CC(=O)NC2CCCC2)C(=O)CNC(=O)c2ccco2)cc1,11.7,,
COc1ccc2cc(C(C)C(=O)Nc3cccc(S(=O)(=O)N(C)C)c3)ccc2c1 (centres undefined),38.5,"0.366 µM [rising, full curve, poor fit]",
COc1ccc(OCCSc2nnc(C(C)NC(=O)c3ccccc3F)n2C)cc1 (centres undefined),,,"18.4 µM [falling, partial curve, poor fit]"
Cn1cccc1/C=C1\CC(C(C)(C)C)C/C(=C\c2cccn2C)C1=O (centres undefined),-30.5,"6.51 µM [falling, full curve, poor fit]",
CCN(CC)C(=O)c1ccc(C(=O)c2ccccc2)cc1,,"0.731 µM [falling, full curve]","0.651 µM [falling, single point]"

# Part of the list above in a different format.
Structure (SMILES) | cell number change [%] | AC50 [1] | AC50 [2]
Cc1cc(C(=O)OCC(=O)NC2(C#N)CCCCC2)c(C)o1 |  |  | 23.1 µM [rising, partial curve, poor fit]
COCCCNC(=O)CN(CCc1ccccc1)S(=O)(=O)c1ccccc1 | 122 | 3.66 µM [falling, single point] | 29.1 µM [rising, single point]
C/C(=N\NC(=O)c1ccccc1)c1c(C)[nH]n(-c2ccccc2)c1=O | -12.1 |  | 
CC(C)(C)NC(=O)c1ccc(NC(=O)c2ccccc2-c2ccccc2C(=O)O)cc1 | 31.2 | 1.03 µM [rising, full curve, poor fit] | 29.1 µM [rising, single point]

# Reference: PubChem BioAssay AID2685 (National Center for Advancing Translational Sciences (NCATS), 2010)
